PubChem BioAssay AID1259425 – University of Nebraska Medical Center – 2018
Here is one part, drawn at random, of about 14,000 reagents tested. Reagents against one gene are numbered here. The record does not give: the time to read-out.

Assay: 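Seek colon cancer weak points whose silencing resembles KSR1 loss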 (primary screen)
Cell system: HCT116 human colon cancer cells
Reagents: siRNA pool against human genes, 50 nM siRNA
Read-out: 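After 50 nM siRNA pool, branched-DNA assay measures six marker transcripts per well, minus blank, normalised to the geometric mean of two housekeeping transcripts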
Scale: BNIP3L mRNA: higher = more BNIP3L transcript after knockdown; NDRG1 mRNA: higher = more NDRG1 transcript after knockdown; BNIP3 mRNA: higher = more BNIP3 transcript after knockdown; ALDOC mRNA: higher = more ALDOC transcript after knockdown; ACSL5 mRNA: higher = more ACSL5 transcript after knockdown

Gene | reagent | BNIP3L mRNA, set 1 | NDRG1 mRNA, set 1 | BNIP3 mRNA, set 1 | ALDOC mRNA, set 1 | ACSL5 mRNA, set 1
CHL1 | 1 | 0.102 | 0.196 | 0.368 | 0.033 | 0.205
BAIAP2L2 | 1 | 0.32 | 0.655 | 0.57 | 0.0695 | 0.287
CRACR2A | 1 | 0.0819 | 0.428 | 0.308 | 0.0349 | 0.228
PBK | 1 | 0.128 | 0.238 | 0.301 | 0.00974 | 0.177
ZFPM2 | 1 | 0.162 | 0.0937 | 0.344 | 0.0201 | 0.22
PHAF1 | 1 | 0.128 | 0.306 | 0.388 | 0.0412 | 0.141
PHYH | 1 | 0.203 | 0.141 | 0.425 | 0.0368 | 0.333
FASTK | 1 | 0.15 | 0.0809 | 0.424 | 0.00345 | 0.0868
ENO3 | 1 | 0.107 | 0.416 | 0.223 | 0.0075 | 0.128
CGB3 | 1 | 0.111 | 0.193 | 0.189 | 0.0309 | 0.269
PRSS3 | 1 | 0.111 | 0.284 | 0.24 | 0.0243 | 0.219
CD79A | 1 | 0.0663 | 0.328 | 0.27 | 0.0239 | 0.223
SND1 | 1 | 0.0685 | 0.124 | 0.215 | 0.00918 | 0.179
SELP | 1 | 0.0961 | 0.256 | 0.28 | 0.00447 | 0.182
CNTNAP2 | 1 | 0.0776 | 0.211 | 0.238 | 0.0197 | 0.138
JAG1 | 1 | 0.0597 | 0.106 | 0.297 | 0.0267 | 0.131
ITSN2 | 1 | 0.327 | 0.245 | 0.165 | 0.0409 | 0.293
FAM107B | 1 | 0.0574 | 0.226 | 0.147 | 0.059 | 0.356
NOLC1 | 1 | 0.165 | 0.327 | 0.285 | 0.0235 | 0.313
EMX1 | 1 | 0.088 | 0.303 | 0.264 | 0.00582 | 0.267
GCC2-AS1 | 1 | 0.211 | 0.0893 | 0.412 | 0.0908 | 0.285
GAB1 | 1 | 0.0943 | 0.321 | 0.11 | 0.0443 | 0.167
TEAD3 | 1 | 0.108 | 0.138 | 0.175 | 0.00867 | 0.209
DPH1 | 1 | 0.122 | 0.175 | 0.296 | 0.0217 | 0.263
CS | 1 | 0.117 | 0.0961 | 0.383 | 0.0171 | 0.174
MAGIX | 1 | 0.0997 | 0.173 | 0.395 | 0.0213 | 0.264
PHLDA3 | 1 | 0.0967 | 0.0926 | 0.261 | 0.0184 | 0.119
TSPOAP1 | 1 | 0.0847 | 0.13 | 0.194 | 0.0114 | 0.101
OR2M4 | 1 | 0.0755 | 0.109 | 0.228 | 0.0141 | 0.169
CFC1 | 1 | 0.0568 | 0.0463 | 0.243 | 0.0156 | 0.0614
GPR35 | 1 | 0.17 | 0.638 | 0.472 | 0.092 | 0.184
KLHDC10 | 1 | 0.11 | 0.124 | 0.311 | 0.0115 | 0.188
CDHR2 | 1 | 0.144 | 0.489 | 0.305 | 0.029 | 0.135
MAPK10 | 1 | 0.105 | 0.0921 | 0.279 | 0.0076 | 0.126
EIF3D | 1 | 0.0362 | 0.0493 | 0.213 | 0.0109 | 0.0793
SLC26A4 | 1 | 0.124 | 0.129 | 0.299 | 0.0241 | 0.134
PNLIPRP1 | 1 | 0.112 | 0.181 | 0.32 | 0.0212 | 0.284
PRG4 | 1 | 0.08 | 0.04 | 0.423 | 0.0198 | 0.0363
DNAJC7 | 1 | 0.0895 | 0.116 | 0.254 | 0.0212 | 0.18
THRB | 1 | 0.0348 | 0.0717 | 0.248 | 0.0243 | 0.11
EIF3B | 1 | 0.222 | 0.201 | 0.338 | -0.0233 | 0.275
ASPH | 1 | 0.0758 | 0.26 | 0.31 | 0.0255 | 0.166
CLCA3P | 1 | 0.11 | 0.124 | 0.267 | 0.026 | 0.183
MLH3 | 1 | 0.0923 | 0.29 | 0.27 | 0.0113 | 0.206
KLK15 | 1 | 0.0634 | 0.61 | 0.203 | 0.00533 | 0.121
NSD2 | 1 | 0.0483 | 0.063 | 0.225 | 0.0135 | 0.162
RACK1 | 1 | 0.0556 | 0.0871 | 0.489 | 0.0125 | 0.0737
C1orf54 | 1 | 0.15 | 0.311 | 0.404 | 0.0335 | 0.274
MTUS1 | 1 | 0.0733 | 0.251 | 0.361 | 0.044 | 0.351
SLC25A27 | 1 | 0.0643 | 0.0787 | 0.264 | 0.0537 | 0.175
CRISP1 | 1 | 0.11 | 1.03 | 0.34 | 0.0268 | 0.213
SIDT1 | 1 | 0.133 | 0.141 | 0.314 | 0.0255 | 0.109
TELO2 | 1 | 0.0717 | 0.286 | 0.171 | 0.0171 | 0.249
BCL7C | 1 | 0.174 | 0.209 | 0.347 | 0.0643 | 0.184
ZDHHC12 | 1 | 0.109 | 0.209 | 0.363 | 0.0314 | 0.216
LCOR | 1 | 0.132 | 0.751 | 0.528 | 0.0112 | 0.271
LCOR | 2 | 0.0736 | 0.117 | 0.123 | 0.11 | 0.179
TMT1A | 1 | 0.176 | 0.0719 | 0.321 | 0.0235 | 0.171
ATP13A3 | 1 | 0.165 | 0.347 | 0.321 | 0.0495 | 0.225
FOLH1B | 1 | 0.132 | 0.172 | 0.238 | 0.0369 | 0.143
BCO2 | 1 | 0.307 | 0.335 | 0.399 | 0.106 | 0.546
AFTPH | 1 | 0.217 | 0.174 | 0.309 | 0.0407 | 0.184
DHRS7B | 1 | 0.0911 | 0.116 | 0.482 | 0.00809 | 0.119

Targets above whose gene name starts with S or s:
Gene | reagent | BNIP3L mRNA, set 1 | NDRG1 mRNA, set 1 | BNIP3 mRNA, set 1 | ALDOC mRNA, set 1 | ACSL5 mRNA, set 1
SND1 | 1 | 0.0685 | 0.124 | 0.215 | 0.00918 | 0.179
SELP | 1 | 0.0961 | 0.256 | 0.28 | 0.00447 | 0.182
SLC26A4 | 1 | 0.124 | 0.129 | 0.299 | 0.0241 | 0.134
SLC25A27 | 1 | 0.0643 | 0.0787 | 0.264 | 0.0537 | 0.175
SIDT1 | 1 | 0.133 | 0.141 | 0.314 | 0.0255 | 0.109
